{
  "sequences": {"note": "By UniProt entry, the sequences of proteins in these tests, tags left out. Residues count along the entry.", "UniProt Q07955, 199-248": "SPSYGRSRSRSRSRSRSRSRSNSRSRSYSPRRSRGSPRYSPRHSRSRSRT", "UniProt Q07955, whole entry": "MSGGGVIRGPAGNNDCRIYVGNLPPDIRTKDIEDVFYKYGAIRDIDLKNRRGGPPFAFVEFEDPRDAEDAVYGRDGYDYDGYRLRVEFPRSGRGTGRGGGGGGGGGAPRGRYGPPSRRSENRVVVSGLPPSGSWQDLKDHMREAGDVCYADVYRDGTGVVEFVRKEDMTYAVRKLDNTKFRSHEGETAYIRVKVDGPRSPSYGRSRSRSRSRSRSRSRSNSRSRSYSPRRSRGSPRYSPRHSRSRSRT"},
  "source": "paper PMC11077049",
  "key": {"SRSF1 RS (human) [1]": {"target": "SRSF1 RS (human) (UniProt Q07955)", "assay": "FP", "conditions": "37 C 30 min then 25 C 10 min, 21-mers: 25 mM KCl, 0.25 M Arg/Glu, 20 mM Tris-HCl pH 7.5, 0.1 mM EDTA, 0.1 mM TCEP, 0.02% Tween 20, 8-mers: 35 mM K3PO4, recombinant protein, residues 199-248, label: 5' fluorescein; for binding result: 70 mM K3PO4, 10 nM RNA"}, "[2]": {"target": "SRSF1 full-length (human) (UniProt Q07955)", "assay": "FRET unfolding", "conditions": "recombinant protein; residues 1-248; label: 5' Cy5, 3' Cy3"}, "SRSF1 RS (human) [3]": {"target": "SRSF1 RS (human) (UniProt Q07955)", "assay": "FRET unfolding", "conditions": "recombinant protein; residues 199-248; label: 5' Cy5, 3' Cy3"}},
  "note": "The exact form of at least one protein or probe is not confirmed. For some assays here: Weaker means in comparison with the reference protein, sequence or condition of that experiment. At least one verdict rests on a figure or table, not on a statement of the authors.",
  "data": [
    {"sequence": "CCCCCCCC [8C]", "values": [
      {"measurement": "Kd", "setting": "SRSF1 RS (human) [1]; 8-mer buffer, 35 mM K3PO4, 10 nM RNA", "result": 1220, "unit": "nM"}
    ]},
    {"sequence": "GAGAGAGA [4GA]", "values": [
      {"measurement": "binding result", "setting": "SRSF1 RS (human) [1]", "result": "binds more weakly"}
    ]},
    {"sequence": "CUCUCUCU [4CU]", "values": [
      {"measurement": "binding result", "setting": "SRSF1 RS (human) [1]", "result": "binds more weakly"}
    ]},
    {"sequence": "UGGGGGCUGGGCGGGGACCGGGU [Cy3-Cy5 ARPC2 GQ]", "values": [
      {"measurement": "binding result", "setting": "[2]", "result": "binds"},
      {"measurement": "binding result", "setting": "SRSF1 RS (human) [3]", "result": "binds"}
    ]}
  ]
}
